The campaign covered roughly 400,000 compounds. About 5,500 (1.4%) were called active. The shares of active, inactive and inconclusive entries below differ from those in the screen. The call rests on the fitted dose curve; in most records, active means well fitted cell-killing curve with a large enough effect; inconclusive means small, poorly fitted or top-dose-only effect, or effect the other way; inactive means flat fitted curve, though single readings scatter. Potencies beside an inconclusive call are fits to weak or partial responses and may not hold up.
Test: qHTS assay for MDR1-selective chemotherapeutics: Primary screen using the parental adenocarcinoma cell KB-3-1; further: nearly all actives have a fitted effect of over 60% in size
Conditions: KB-3-1 viability, CellTiter-Glo ATP luminescence, 72 h; activity change, negative = cytotoxic: at 46.1 µM (top of the series)
In short: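 Using CellTiter-Glo luminescence, growth of non-resistant KB-3-1 adenocarcinoma cells is assessed 72 h after pin-tool compound addition at 37 °C. Normalized responses across the concentration series yield fitted curves.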
On the % scale 0 is the no-effect control and ±100 the full control effect; potency means the concentration at half of the fitted maximal effect.

| Structure (SMILES) | activity change, negative = cytotoxic | Potency |
| --- | --- | --- |
| Cc1ccc(S(=O)(=O)NCc2ccccc2)cc1C(=O)NCC(=O)Nc1c(C)cccc1C | inactive: -6.44% |  |
| CC(C)(C)c1ccc(O)c(O)c1 | inconclusive: 0% |  |
| C/C(=N\NC(=O)c1ccc(F)cc1)c1ccccn1 |  | inconclusive: 0.731 µM [cytotoxic, full curve, poor fit] |
| Cc1ccc(NC(=O)NNC(=O)COc2ccc(Cl)cc2)cc1 | inactive: -1.39% |  |
| CC(C)(C)OC(=O)NCCc1onc(-c2ccc([N+](=O)[O-])cc2)c1C(=O)O |  | inconclusive: 20.6 µM [rising, single point] |
| O=C(NNC(=O)c1ccccc1OCc1ccccc1)c1ccccc1O |  | inconclusive: 29.1 µM [cytotoxic, single point] |
| CCOc1ccccc1OCC(=O)Nc1ccc2[nH]c(=O)[nH]c2c1 |  | active: 8.2 µM |
| CCCCCCCCCCCCCCCC[n+]1ccc(CC(O)c2c(C)[nH]c3ccccc23)c2ccccc21 (stereo unspecified) |  | active: 16.4 µM |
| O=C(CN1C(=O)NC(Cc2c[nH]c3ccccc23)C1=O)Nc1cccc(S(=O)(=O)N2CCCCCC2)c1 (stereo unspecified) |  | inconclusive: 23.1 µM [cytotoxic, partial curve, poor fit] |
| Cc1ccc(S(=O)(=O)N2CCN(CC(=O)Nc3ccc4c(c3)CCC4)CC2)cc1C |  | inconclusive: 29.1 µM [cytotoxic, single point] |
| Cc1cc(C(=O)NNC(=O)CN2C(=O)NC(C)(c3ccccc3)C2=O)c(C)o1 (stereo unspecified) | inactive: 19.5% |  |
| COc1ccc(NC(=O)Nc2cccs2)cc1Cl | inactive: 0% |  |
| O=S(=O)(Nc1nc2ccccc2nc1Nc1cccc(S(=O)(=O)N2CCCCC2)c1)c1ccccc1 |  | active: 14.6 µM |
| COc1ccc(Cn2nnnc2C(c2cc3cc(C)ccc3[nH]c2=O)N2CCOCC2)cc1 (stereo unspecified) |  | inconclusive: 18.4 µM [rising, single point] |
| O=C(NC1CCCCC1)C(c1cccnc1)N(C(=O)CCl)c1cccc(Cl)c1 (stereo unspecified) |  | active: 23.1 µM |
| CN(C1CCCCC1)S(=O)(=O)c1ccc2c(c1)c(=O)c(C(=O)NCCc1ccc(Cl)cc1)cn2C |  | inconclusive: 18.4 µM [rising, partial curve, poor fit] |
| NC(=O)c1nn(Cc2ccccc2)c(=O)c2ccccc12 | inactive: -0.0181% |  |
| CCOc1ccc(-n2cc(C(=O)Nc3cccc(OC)c3)c3cc(OC)c(OC)cc3c2=O)cc1 |  | inconclusive: 23.1 µM [rising, single point] |
| CSCCC(NS(=O)(=O)c1ccc2c(c1)oc(=O)n2C)C(=O)NCCc1ccc(C)cc1 (stereo unspecified) | inactive: 2.91% |  |
| CCc1ccc(-c2nc(CN3CCC(C(=O)NCc4ccc(F)cc4)CC3)c(C)o2)cc1 |  | inconclusive: 35.5 µM [cytotoxic, single point] |
| Cn1nc(-c2ccc(OCC(=O)Nc3cccnc3)cc2)c2ccccc2c1=O |  | inconclusive: 29.1 µM [cytotoxic, single point] |
| COC(=O)c1ccc(CC2(C)C(=O)Nc3ccc(-c4cccc(C(F)(F)F)c4)cc32)o1 (stereo unspecified) |  | inconclusive: 29.1 µM [cytotoxic, single point] |
| Oc1ccc(Cl)cc1C1C=C(c2ccc3c(c2)OCO3)NC(c2ccc(Cl)cc2)N1 (stereo unspecified) | inactive: -19.2% |  |
| CCOC1(OCC)OC(c2ccccc2)=C(C#N)C(C=Cc2ccccc2)C1(OCC)OCC (stereo unspecified) |  | inconclusive: 20.6 µM [cytotoxic, single point] |

| Structure (SMILES) | activity change, negative = cytotoxic | Potency |
| --- | --- | --- |
| COc1cccc(OCCCCn2c(-c3ccc(Cl)cc3)nc3ccccc3c2=O)c1 | inconclusive: 2.16% |  |
| Cc1ccc(S(=O)(=O)c2cnc(SCC(=O)Nc3ccc4c(c3)OCCO4)[nH]c2=O)cc1 | inactive: 6.94% |  |
| Cc1c(Cc2ccccc2)sc(NC(=O)Cc2ccccc2)c1C(N)=O | inactive: -5.09% |  |
| CSc1cccc(-n2cc(-c3ccc4c(c3)OCO4)[nH]c2=O)c1 |  | active: 4.11 µM |
| Cc1c(-c2ccccc2)n[nH]c1C(=O)N=Nc1c(O)[nH]c2ccccc12 |  | inconclusive: 29.1 µM [cytotoxic, single point] |
| O=C(NCCCN1CCN(c2cccc(Cl)c2)CC1)c1cnn(-c2ccc(F)cc2)c1-n1cccc1 |  | inconclusive: 32.6 µM [cytotoxic, partial curve, poor fit] |
| O=S(=O)(Nc1cc(Sc2cccc3cccnc23)c(O)c2ccccc12)c1ccc(F)cc1 |  | active: 3.26 µM |
| CN(C(=S)Oc1ccc(C(=O)Nc2ccccc2)cc1)c1ccccc1 |  | inconclusive: 29.1 µM [cytotoxic, single point] |
| COc1ccc(CNC(=O)c2cnn3c(C)c(Cc4c(F)cccc4Cl)c(C)nc23)cc1 |  | inconclusive: 25.9 µM [cytotoxic, single point] |
| COc1ccc(N(C(=O)c2ccc(C(C)(C)C)cc2)S(=O)(=O)c2ccc(Cl)cc2)cc1 |  | inconclusive: 16.4 µM [cytotoxic, single point] |
| CCOc1ccc(OCc2cccc(C(=O)N3CCCCCC3)c2)cc1 | inactive: 9.71% |  |
| CC(Oc1ccc(Cl)cc1Cl)c1ccnc2nc(N3CCOCC3)nn12 (stereo unspecified) | inactive: -11.5% |  |
| COC(=O)c1[nH]c2cc(OC)c(OC)cc2c1/C=N/Nc1ccccc1 | inconclusive: -42.9% |  |
| O=C(CSc1cccc(C(F)(F)F)c1)NC(=O)c1ccccc1 |  | inconclusive: 29.1 µM [rising, single point] |
| COc1ccc(-c2nc(N)nc(C)c2Oc2ccccc2Br)c(O)c1 |  | inconclusive: 18.4 µM [cytotoxic, single point] |
| COc1ccccc1NC(=O)CC1C(=O)NCCN1C(=O)Nc1ccc(Cl)c(Cl)c1 (stereo unspecified) |  | inconclusive: 29.1 µM [cytotoxic, single point] |
| COc1ccc(CNc2nc3ccccc3n2C)c(OC)c1 |  | inconclusive: 5.8 µM [cytotoxic, partial curve, poor fit] |
| COc1ccc(-n2c(=S)[nH]c3cc(C(=O)NC4CCCCC4)ccc3c2=O)c(OC)c1 |  | inconclusive: 29.1 µM [rising, single point] |
| CCc1ccccc1Nc1sc(C(=O)c2cccc(OC)c2)c(N)c1S(=O)(=O)c1ccccc1 |  | inconclusive: 18.4 µM [cytotoxic, single point] |
| COc1ccc(OC)c(S(=O)(=O)Nc2c(C)nn(C)c2C)c1 | inconclusive: -22% |  |
| O=C(NCc1ccccn1)C1CCCN(S(=O)(=O)c2cc(Cl)ccc2Cl)C1 (stereo unspecified) |  | inconclusive: 2.31 µM [cytotoxic, full curve, poor fit] |
| CC(=O)Nc1cccc(/C(C)=N/NC(=S)NC(C)C)c1 |  | inconclusive: 0.13 µM [cytotoxic, full curve] |
| CCNC(=S)Nc1ccc2c(c1)c(=O)n(C)n2-c1cc(C)cc(C)c1 | inactive: 0% |  |
| O=C1CC(c2cccc(Br)c2)c2cc3c(cc2N1)CCC3 (stereo unspecified) |  | active: 18.4 µM |

| Structure (SMILES) | activity change, negative = cytotoxic | Potency |
| --- | --- | --- |
| COc1ccc(N=C(N(C)C)P(=O)(N(C)C)N(C)C)cc1 |  | inconclusive: 29.1 µM [rising, single point] |
| C=C(C)C1Cc2c(C)nn(-c3cccc4cccnc34)c2C1 (stereo unspecified) |  | inconclusive: 1.3 µM [rising, full curve] |
| CCCOc1ccc(N2CC(C(=O)Nc3ccccn3)CC2=O)cc1 (stereo unspecified) | inconclusive: -34.9% |  |
| CC(C)(C)c1ccc(OCc2ccc(C(=O)N/N=C/c3ccc([N+](=O)[O-])cc3)o2)cc1 | inactive: -3.71% |  |
| COc1ccc(-n2nc([N+](=O)[O-])c(=NCCc3ccc(OC)c(OC)c3)n2O)cc1 | inactive: -10.3% |  |
| CCCOC(=O)c1ccc(Oc2cn[nH]c2-c2ccc(OC)cc2O)cc1 |  | inconclusive: 29.1 µM [cytotoxic, single point] |
| COc1ccc2sc(N(CCCN(C)C)C(=O)c3ccc(S(=O)(=O)N4CCCc5ccccc54)cc3)nc2c1 | inactive: -27.1% |  |
| Cc1ccc(NC(=O)Cn2nc(N3CCN(c4ccccc4)CC3)ccc2=O)cc1F |  | inconclusive: 32.6 µM [cytotoxic, single point] |
| O=C(Nc1ccc(Cl)cc1)c1cc2c(cc1O)[nH]c1ccccc12 |  | inconclusive: 20.6 µM [cytotoxic, single point] |
| CC1CC(C)CN(C(=O)c2ccccc2Nc2ccc(SC(F)F)cc2)C1 (stereo unspecified) |  | inconclusive: 25.9 µM [cytotoxic, single point] |
| O=C1c2cccc3cc(Br)cc(c23)C(=O)N1Nc1ccc(Br)cc1 |  | inconclusive: 20.6 µM [cytotoxic, single point] |
| CCC1CCCCN1C(=O)COc1ccc(S(=O)(=O)N2CCOCC2)cc1Cl (stereo unspecified) | inactive: -5.36% |  |
| CCCCOc1ccc(Br)cc1/C(C)=N/NC1=NCCN1 |  | active: 4.11 µM |
| C/C(CCc1ccccc1)=N\NC(=S)NCCc1ccccc1 | inactive: -19.4% |  |
| COc1cccc(C(c2c(NC(=O)c3ccccc3)sc(C)c2C)N2CCN(C)CC2)c1 (stereo unspecified) |  | inconclusive: 18.4 µM [cytotoxic, single point] |
| COc1ccc(CNC(=O)c2cc3c(C)nc4ccccc4c3o2)c(OC)c1 |  | inconclusive: 20.6 µM [cytotoxic, single point] |
| COc1ccccc1Nc1nc2ccccc2[nH]1 |  | inconclusive: 29.1 µM [cytotoxic, single point] |
| CCOC(=O)N1CCc2c(sc(N)c2C#N)C1 | inactive: -24.4% |  |
| O=C(NCC(c1ccco1)N1CCCCC1)c1ccc(OCc2ccccc2)cc1 (stereo unspecified) | inactive: 8.07% |  |
| Cc1sc2nc(SCC(=O)N3CCN(CCO)CC3)n(-c3ccccc3)c(=O)c2c1C | inactive: -2.71% |  |
| CCOc1ncccc1C(=O)Nc1ccc(C)c(S(=O)(=O)N2CCCCCC2)c1 | inconclusive: -33.6% [cytotoxic] |  |
| COc1ccc(-c2csc(NC(=O)C3=NN(c4ccccc4)C(=O)CC3)n2)cc1 |  | inconclusive: 32.6 µM [cytotoxic, partial curve, poor fit] |
| COc1ccc(C(=O)NC(C)Cc2c[nH]c3ccccc23)cc1 (stereo unspecified) | inactive: -0.186% |  |

Sorted by molecular weight (ascending): five of the compounds above.

| Structure (SMILES) | activity change, negative = cytotoxic | Potency |
| --- | --- | --- |
| CCOC(=O)N1CCc2c(sc(N)c2C#N)C1 | inactive: -24.4% |  |
| COc1ccc(C(=O)NC(C)Cc2c[nH]c3ccccc23)cc1 (stereo unspecified) | inactive: -0.186% |  |
| CSc1cccc(-n2cc(-c3ccc4c(c3)OCO4)[nH]c2=O)c1 |  | active: 4.11 µM |
| CN(C(=S)Oc1ccc(C(=O)Nc2ccccc2)cc1)c1ccccc1 |  | inconclusive: 29.1 µM [cytotoxic, single point] |
| CCc1ccccc1Nc1sc(C(=O)c2cccc(OC)c2)c(N)c1S(=O)(=O)c1ccccc1 |  | inconclusive: 18.4 µM [cytotoxic, single point] |

Source: PubChem BioAssay AID1347075 (National Center for Advancing Translational Sciences (NCATS), 2019)
